This is an account of results in paper PMC7864959.

Sequences of proteins named here, by UniProt entry; tags and fusion partners are left off. A change or cut given only in a name is not applied to a line headed by its entry.
UniProt Q14790: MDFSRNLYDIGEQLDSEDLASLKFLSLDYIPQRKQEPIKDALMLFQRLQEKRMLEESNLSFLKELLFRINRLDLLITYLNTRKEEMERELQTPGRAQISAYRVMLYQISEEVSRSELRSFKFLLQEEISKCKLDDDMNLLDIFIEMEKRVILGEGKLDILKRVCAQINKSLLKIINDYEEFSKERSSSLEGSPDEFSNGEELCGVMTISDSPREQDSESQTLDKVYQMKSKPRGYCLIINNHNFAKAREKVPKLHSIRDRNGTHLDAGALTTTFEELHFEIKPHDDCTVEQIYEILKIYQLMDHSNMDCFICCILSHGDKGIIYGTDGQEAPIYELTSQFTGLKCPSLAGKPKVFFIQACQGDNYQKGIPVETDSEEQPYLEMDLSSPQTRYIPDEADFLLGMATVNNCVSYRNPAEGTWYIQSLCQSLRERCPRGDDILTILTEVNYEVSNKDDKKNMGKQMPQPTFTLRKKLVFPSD

No constants are given. Whether binding was seen depends on the method and setting. Some results given as binding are weak or reduced against the parent protein; the word gives no strength.

Assay [1] has as its target full-length catalytically inactive Caspase-8 (C360A) (UniProt Q14790). The assay is described as follows: cryo-EM structure; FADD:Caspase-8:FLAG-c-FLIPS complex co-expressed in HEK 293F, FLAG-purified, gradient fraction fixed with 0.1% glutaraldehyde; Titan Krios 300 kV; map of ~13 Å; published and threaded structures fitted as rigid bodies.
For assay [2] the target is unchanged. The assay is described as follows: negative-stain EM (single-particle analysis, immuno-gold labelling); single glycerol gradient fractions of FLAG-purified co-expressed complexes, fixed with glutaraldehyde, uranyl acetate stain; 2D classes and low-resolution 3D maps (RELION, CryoSPARC); immuno-gold with anti-FLAG or anti-Caspase-8.

With “full-length catalytically inactive Caspase-8 (C360A) (from UniProt Q14790 1-479) (enzyme)”, the binding result in assay [1] and in assay [2] was “binds” throughout.
